Experimental data taken from PMC5327418.
These are yes or no findings as the source states them, for the method shown. In cells and extracts the contact can be indirect. Here binding means that the protein was enriched with, or labelled near, the bait; the list need not be complete.

The chains behind the UniProt entries cited, without tags or fusion partners.
UniProt P32569: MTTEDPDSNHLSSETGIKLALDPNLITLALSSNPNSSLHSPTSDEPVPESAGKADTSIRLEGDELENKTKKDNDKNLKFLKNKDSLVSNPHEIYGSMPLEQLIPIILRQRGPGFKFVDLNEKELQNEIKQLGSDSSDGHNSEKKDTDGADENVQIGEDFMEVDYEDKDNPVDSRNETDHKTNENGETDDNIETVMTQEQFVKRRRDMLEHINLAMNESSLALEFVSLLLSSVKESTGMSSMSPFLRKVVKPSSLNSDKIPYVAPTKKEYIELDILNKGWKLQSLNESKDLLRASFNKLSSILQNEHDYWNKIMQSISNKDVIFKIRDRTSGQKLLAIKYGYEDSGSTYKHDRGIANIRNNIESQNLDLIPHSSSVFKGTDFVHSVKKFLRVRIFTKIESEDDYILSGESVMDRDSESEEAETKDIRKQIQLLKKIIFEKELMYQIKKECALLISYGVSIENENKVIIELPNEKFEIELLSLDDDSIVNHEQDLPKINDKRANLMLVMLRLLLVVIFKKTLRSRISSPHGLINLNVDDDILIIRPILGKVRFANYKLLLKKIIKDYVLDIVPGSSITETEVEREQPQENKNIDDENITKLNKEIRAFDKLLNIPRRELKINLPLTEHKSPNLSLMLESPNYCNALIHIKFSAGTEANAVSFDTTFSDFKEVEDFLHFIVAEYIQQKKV

Target: Med17-HA (S. cerevisiae (endogenous in S288c)) (UniProt P32569)
Test: affinity purification with mass spectrometry; CoIP of Med17-HA on anti-HA magnetic beads from cryoground yeast lysate, 2 h at 4 °C; 20 mM HEPES pH 7.5, 300 mM KOAc, 10% glycerol, 0.01% NP-40, 6 mM MnSO4, 1 mM DTT, Cyanase nuclease; parallel control CoIP from 15N-labelled wild type cells, mixing after purification (MAP); GeLC-MS/MS, three biological replicates

| binding | Binder |
| --- | --- |
| binds | Rpa34 (protein, UniProt P47006 1-233) MSKLSKDYVSDSDSDDEVISNEFSIPDGFKKCKHLKNFPLNGDNKKKAKQQQVWLIKFPSNVDISKLKSLPVDFESSTTMTIDKHDYKIMDDTDIESSLTQDNLSNMTLLVPSESKESLKIASTAKDNAPLQFDKVFSVSETAKIPAIDYSKVRVPRKDVPKVEGLKLEHFATGYDAEDFHVAEEVKENKKEPKKRSHHDDEEESSEKKKKKKEKREKREKKDKKDKKKKHRD |
| binds | Rpac2 (protein, UniProt P28000 1-142) MTEDIEQKKTATEVTPQEPKHIQEEEEQDVDMTGDEEQEEEPDREKIKLLTQATSEDGTSASFQIVEEDHTLGNALRYVIMKNPDVEFCGYSIPHPSENLLNIRIQTYGETTAVDALQKGLKDLMDLCDVVESKFTEKIKSM |
| binds | Rpa12 (protein, UniProt P32529 1-125) MSVVGSLIFCLDCGDLLENPNAVLGSNVECSQCKAIYPKSQFSNLKVVTTTADDAFPSSLRAKKSVVKTSLKKNELKDGATIKEKCPQCGNEEMNYHTLQLRSADEGATVFYTCTSCGYKFRTNN |
| binds | Rpa2 (protein, UniProt P22138 1-1203) MSKVIKPPGQARTADFRTLERESRFINPPKDKSAFPLLQEAVQPHIGSFNALTEGPDGGLLNLGVKDIGEKVIFDGKPLNSEDEISNSGYLGNKLSVSVEQVSIAKPMSNDGVSSAVERKVYPSESRQRLTSYRGKLLLKLKWSVNNGEENLFEVRDCGGLPVMLQSNRCHLNKMSPYELVQHKEESDEIGGYFIVNGIEKLIRMLIVQRRNHPMAIIRPSFANRGASYSHYGIQIRSVRPDQTSQTNVLHYLNDGQVTFRFSWRKNEYLVPVVMILKALCHTSDREIFDGIIGNDVKDSFLTDRLELLLRGFKKRYPHLQNRTQVLQYLGDKFRVVFQASPDQSDLEVGQEVLDRIVLVHLGKDGSQDKFRMLLFMIRKLYSLVAGECSPDNPDATQHQEVLLGGFLYGMILKEKIDEYLQNIIAQVRMDINRGMAINFKDKRYMSRVLMRVNENIGSKMQYFLSTGNLVSQSGLDLQQVSGYTVVAEKINFYRFISHFRMVHRGSFFAQLKTTTVRKLLPESWGFLCPVHTPDGSPCGLLNHFAHKCRISTQQSDVSRIPSILYSLGVAPASHTFAAGPSLCCVQIDGKIIGWVSHEQGKIIADTLRYWKVEGKTPGLPIDLEIGYVPPSTRGQYPGLYLFGGHSRMLRPVRYLPLDKEDIVGPFEQVYMNIAVTPQEIQNNVHTHVEFTPTNILSILANLTPFSDFNQSPRNMYQCQMGKQTMGTPGVALCHRSDNKLYRLQTGQTPIVKANLYDDYGMDNFPNGFNAVVAVISYTGYDMDDAMIINKSADERGFGYGTMYKTEKVDLALNRNRGDPITQHFGFGNDEWPKEWLEKLDEDGLPYIGTYVEEGDPICAYFDDTLNKTKIKTYHSSEPAYIEEVNLIGDESNKFQELQTVSIKYRIRRTPQIGDKFSSRHGQKGVCSRKWPTIDMPFSETGIQPDIIINPHAFPSRMTIGMFVESLAGKAGALHGIAQDSTPWIFNEDDTPADYFGEQLAKAGYNYHGNEPMYSGATGEELRADIYVGVVYYQRLRHMVNDKFQVRSTGPVNSLTMQPVKGRKRHGGIRVGEMERDALIGHGTSFLLQDRLLNSSDYTQASVCRECGSILTTQQSVPRIGSISTVCCRRCSMRFEDAKKLLTKSEDGEKIFIDDSQIWEDGQGNKFVGGNETTTVAIPFVLKYLDSELSAMGIRLRYNVEPK |
| binds | Cdc14 (protein, UniProt Q00684 1-551) MRRSVYLDNTIEFLRGRVYLGAYDYTPEDTDELVFFTVEDAIFYNSFHLDFGPMNIGHLYRFAVIFHEILNDPENANKAVVFYSSASTRQRANAACMLCCYMILVQAWTPHQVLQPLAQVDPPFMPFRDAGYSNADFEITIQDVVYGVWRAKEKGLIDLHSFNLESYEKYEHVEFGDFNVLTPDFIAFASPQEDHPKGYLATKSSHLNQPFKSVLNFFANNNVQLVVRLNSHLYNKKHFEDIGIQHLDLIFEDGTCPDLSIVKNFVGAAETIIKRGGKIAVHCKAGLGRTGCLIGAHLIYTYGFTANECIGFLRFIRPGMVVGPQQHWLYLHQNDFREWKYTTRISLKPSEAIGGLYPLISLEEYRLQKKKLKDDKRVAQNNIEGELRDLTMTPPSNGHGALSARNSSQPSTANNGSNSFKSSAVPQTSPGQPRKGQNGSNTIEDINNNRNPTSHANRKVVIESNNSDDESMQDTNGTSNHYPKVSRKKNDISSASSSRMEDNEPSATNINNAADDTILRQLLPKNRRVTSGRRTTSAAGGIRKISGSIKK |
| binds | Rpa43 (protein, UniProt P46669 1-326) MSQVKRANENRETARFIKKHKKQVTNPIDEKNGTSNCIVRVPIALYVSLAPMYLENPLQGVMKQHLNPLVMKYNNKVGGVVLGYEGLKILDADPLSKEDTSEKLIKITPDTPFGFTWCHVNLYVWQPQVGDVLEGYIFIQSASHIGLLIHDAFNASIKKNNIPVDWTFVHNDVEEDADVINTDENNGNNNNEDNKDSNGGSNSLGKFSFGNRSLGHWVDSNGEPIDGKLRFTVRNVHTTGRVVSVDGTLISDADEEGNGYNSSRSQAESLPIVSNKKIVFDDEVSIENKESHKELDLPEVKEDNGSEIVYEENTSESNDGESSDSD |
| binds | Hmo1 (protein, UniProt Q03973 1-246) MTTDPSVKLKSAKDSLVSSLFELSKAANQTASSIVDFYNAIGDDEEEKIEAFTTLTESLQTLTSGVNHLHGISSELVNPIDDDKDAIIAAPVKAVRRKIERDPNAPKKPLTVFFAYSAYVRQELREDRQKAGLPPLSSTEITQEISKKWKELSDNEKEKWKQAYNVELENYQREKSKYLEAKKNGTLPPASLENGPTHAPVPIPFSLQHAAEPPVEKRPHDDDGSSEKKKKKKKKDKKKDKSNSSI |
| binds | Rpa49 (protein, UniProt Q01080 1-415) MSVKRSVSEIEIESVQDQPSVAVGSFFKGFRAPSDTTFDLYKKKKSEKDEFVLHGENERLEYEGYTDSSSQASNQYVVGLFNPEKKSIQLYKAPVLVSKVVSKSSKNLRGPKIKSKSDTRPSALRNALGEAFGTKKAKKAIADLERNRIDSDKLTDSAIDIVDSVRTASKDLPTRAQLDEITSNDRPTPLANIDATDVEQIYPIESIIPKKELQFIRVSSILKEADKEKKLELFPYQNNSKYVAKKLDSLTQPSQMTKLQLLYYLSLLLGVYENRRVNNKTKLLERLNSPPEILVDGILSRFTVIKPGQFGRSKDRSYFIDPQNEDKILCYILAIIMHLDNFIVEITPLAHELNLKPSKVVSLFRVLGAIVKGATVAQAEAFGIPKSTAASYKIATMKVPFKLPEMTRRGRGPRR |
| binds | Dcp2 (protein, UniProt P53550 1-970) MSLPLRHALENVTSVDRILEDLLVRFIINCPNEDLSSVERELFHFEEASWFYTDFIKLMNPTLPSLKIKSFAQLIIKLCPLVWKWDIRVDEALQQFSKYKKSIPVRGAAIFNENLSKILLVQGTESDSWSFPRGKISKDENDIDCCIREVKEEIGFDLTDYIDDNQFIERNIQGKNYKIFLISGVSEVFNFKPQVRNEIDKIEWFDFKKISKTMYKSNIKYYLINSMMRPLSMWLRHQRQIKNEDQLKSYAEEQLKLLLGITKEEQIDPGRELLNMLHTAVQANSNNNAVSNGQVPSSQELQHLKEQSGEHNQQKDQQSSFSSQQQPSIFPSLSEPFANNKNVIPPTMPMANVFMSNPQLFATMNGQPFAPFPFMLPLTNNSNSANPIPTPVPPNFNAPPNPMAFGVPNMHNLSGPAVSQPFSLPPAPLPRDSGYSSSSPGQLLDILNSKKPDSNVQSSKKPKLKILQRGTDLNSIKQNNNDETAHSNSQALLDLLKKPTSSQKIHASKPDTSFLPNDSVSGIQDAEYEDFESSSDEEVETARDERNSLNVDIGVNVMPSEKDSRRSQKEKPRNDASKTNLNASAESNSVEWGPGKSSPSTQSKQNSSVGMQNKYRQEIHIGDSDAYEVFESSSDEEDGKKLEELEQTQDNSKLISQDILKENNFQDGEVPHRDMPTESNKSINETVGLSSTTNTVKKVPKVKILKRGETFASLANDKKAFDSSSNVSSSKDLLQMLRNPISSTVSSNQQSPKSQHLSGDEEIMMMLKRNSVSKPQNSEENASTSSINDANASELLGMLKQKEKDITAPKQPYNVDSYSQKNSAKGLLNILKKNDSTGYPRTEGGPSSEMSTSMKRNDATNNQELDKNSTELLNYLKPKPLNDGYENISNKDSSHELLNILHGNKNSSAFNNNVYATDGYSLASDNNENSSNKLLNMLQNRSSAINEPNFDVRSNGTSGSNELLSILHRK |
| binds | Rpac1 (protein, UniProt P07703 1-335) MSNIVGIEYNRVTNTTSTDFPGFSKDAENEWNVEKFKKDFEVNISSLDAREANFDLINIDTSIANAFRRIMISEVPSVAAEYVYFFNNTSVIQDEVLAHRIGLVPLKVDPDMLTWVDSNLPDDEKFTDENTIVLSLNVKCTRNPDAPKGSTDPKELYNNAHVYARDLKFEPQGRQSTTFADCPVVPADPDILLAKLRPGQEISLKAHCILGIGGDHAKFSPVSTASYRLLPQINILQPIKGESARRFQKCFPPGVIGIDEGSDEAYVKDARKDTVSREVLRYEEFADKVKLGRVRNHFIFNVESAGAMTPEEIFFKSVRILKNKAEYLKNCPITQ |
| binds | Edc3 (protein, UniProt P39998 1-551) MSQFVGFGVQVELKDGKLIQGKIAKATSKGLTLNDVQFGDGGKSQAFKVRASRLKDLKVLTVASQSGKRKQQRQQQQQNDYNQNRGEHIDWQDDDVSKIKQQEDFDFQRNLGMFNKKDVFAQLKQNDDILPENRLQGHNRKQTQLQQNNYQNDELVIPDAKKDSWNKISSRNEQSTHQSQPQQDAQDDLVLEDDEHEYDVDDIDDPKYLPITQSLNITHLIHSATNSPSINDKTKGTVINDKDQVLAKLGQMIISQSRSNSTSLPAANKQTTIRSKNTKQNIPMATPVQLLEMESITSEFFSINSAGLLENFAVNASFFLKQKLGGRARLRLQNSNPEPLVVILASDSNRSGAKALALGRHLCQTGHIRVITLFTCSQNELQDSMVKKQTDIYKKCGGKIVNSVSSLESAMETLNSPVEIVIDAMQGYDCTLSDLAGTSEVIESRIKSMISWCNKQRGSTKVWSLDIPNGFDAGSGMPDIFFSDRIEATGIICSGWPLIAINNLIANLPSLEDAVLIDIGIPQGAYSQRTSLRKFQNCDLFVTDGSLLLDL |
| binds | Rpa14 (protein, UniProt P50106 1-137) MMKGSRRTGNNTATTLNTPVVIHATQLPQHVSTDEVLQFLESFIDEKENIIDSTTMNTISGNAADADAAAVANTSLNIDTNLSSSISQLKRIQRDFKGLPPAQDFSAAPIQVSTTEKKETSIGVSATGGKKTTFADE |
